Article PMC8782181
No constants are given. Whether binding was seen depends on the method and setting. In cells and extracts the contact can be indirect. These calls come from enrichment with a bait or labelling near it, and not all partners need be listed. Each block holds one binder with its values, some of them ahead of it.

The chains behind the UniProt entries cited, without tags or fusion partners.
UniProt P53297: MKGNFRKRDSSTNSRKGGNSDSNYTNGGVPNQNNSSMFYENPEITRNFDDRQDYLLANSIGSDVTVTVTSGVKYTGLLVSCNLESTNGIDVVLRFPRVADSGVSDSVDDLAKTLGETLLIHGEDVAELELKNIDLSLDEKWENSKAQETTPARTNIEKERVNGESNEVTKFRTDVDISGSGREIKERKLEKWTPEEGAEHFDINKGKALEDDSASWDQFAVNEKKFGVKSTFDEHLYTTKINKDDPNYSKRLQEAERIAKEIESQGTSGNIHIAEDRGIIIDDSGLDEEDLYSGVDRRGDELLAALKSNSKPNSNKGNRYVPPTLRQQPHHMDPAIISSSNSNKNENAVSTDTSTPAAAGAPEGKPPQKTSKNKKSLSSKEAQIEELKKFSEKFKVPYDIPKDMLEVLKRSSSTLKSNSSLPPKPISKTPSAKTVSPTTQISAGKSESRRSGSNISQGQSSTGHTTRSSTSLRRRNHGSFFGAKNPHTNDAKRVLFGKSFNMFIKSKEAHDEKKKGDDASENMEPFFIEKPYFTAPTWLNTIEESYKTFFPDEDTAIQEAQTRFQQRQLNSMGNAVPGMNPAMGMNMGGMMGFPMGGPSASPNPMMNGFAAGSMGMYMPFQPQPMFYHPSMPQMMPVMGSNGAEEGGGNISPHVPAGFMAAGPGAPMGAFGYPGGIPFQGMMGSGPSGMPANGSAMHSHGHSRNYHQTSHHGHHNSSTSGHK

Biological target: Pbp1-myc (S. cerevisiae) (UniProt P53297)
Experiment: affinity purification with mass spectrometry; cells unstressed or glucose-depleted (10 min for Dcp1-myc, 60 min for Pbp1-myc), cross-linked with 0.8% formaldehyde; 20,000 g pellet of the lysate in Blob100 buffer (20 mM Tris-HCl pH 8, 100 mM NaCl, 1 mM MgCl2, 0.5% NP40) on anti-c-Myc magnetic beads, eluted with Myc peptide; label-free LC-MS/MS; hits are the proteins that cluster (Mfuzz) with the tagged bait across IP, pellet, supernatant, total and unbound fractions

B1: Bsp1 (protein, UniProt Q06604 1-576)
chain: MTKYERDPELVNFLSKVEDLNSKRYSNIPSSKPAGEALSPVRSHNSGEYRRADMMTGKNVEGCDNLAYRSAYNYEMTFSPKKTHYSLSELNLERITPRPDLEGSASQKEKKFLISEEDYLLLQKLKASQTYNDSNADKNLPSFEKGPRMPSRGRPRPREKEIITIQYDFELPGRADIPSSSSSSSPPPLPTRRDHIKITDGNEEKPLLPTRPNKAEVTESPSSRSIKPDAVVPERVKPAPPVSRSTKPASFLSSLEDNKLTKAKSYNSEMETPKTTVKSSHIDYLDSIQLKPTTLSPTMKNKPKPTPPSPPAKRIPRSESFIKSMLNSNLTTTSKPSLPEKPQKLRNANLAAHKTKPSIPPKKVELNIVLPELRPVETSPTKQNFENSIDLPKLRSSNRNIKKEEEDSIPEAIKGIQNLKKTKQQKPAIPQKKSFLTNNSKNTTLKNGDDINKLNDEIEALSLRNNLKKRPPTAPQRKISLPEALRKVELMKKSKTEPVLESSNELSINAKLDAIIASRNLRASNTLPELSGVNTNIATSDKYTTSRDETVKETKPLVHPNKNRTRGPRRKLPTRV
- binding: binds

B2: Sur7 (protein, UniProt P54003 1-302)
chain: MVKVWNIVLRLVVLLFLAGNTLLLILMIISGATDHYPVNRFYWVQGNTTGIPNAGDETRWTFWGACLQDKDGSDTCTSNLAPAYPISPVDNFNTHINVPHQFISKRDAFYYLTRFSFCFFWIALAFVGVSFILYVLTWCSKMLSEMVLILMSFGFVFNTAAVVLQTAASAMAKNAFHDDHRSAQLGASMMGMAWASVFLCIVEFILLVFWSVRARLASTYSIDNSRYRTSSRWNPFHREKEQATDPILTATGPEDMQQSASIVGPSSNANPVTATAATENQPKGINFFTIRKSHERPDDVSV
- binding: binds

B4: Srp54 (protein, UniProt P20424 1-541)
chain: MVLADLGKRINSAVNNAISNTQDDFTTSVDVMLKGIVTALLESDVNIALVSKLRNNIRSQLLSENRSEKSTTNAQTKKLIQKTVFDELCKLVTCEGSEEKAFVPKKRKTNIIMFVGLQGSGKTTSCTKLAVYYSKRGFKVGLVCADTFRAGAFDQLKQNAIRARIPFYGSYTETDPAKVAEEGINKFKKEKFDIIIVDTSGRHHQEEELFQEMIEISNVIKPNQTIMVLDASIGQAAEQQSKAFKESSDFGAIILTKMDGHARGGGAISAVAATNTPIIFIGTGEHIHDLEKFSPKSFISKLLGIGDIESLFEQLQTVSNKEDAKATMENIQKGKFTLLDFKKQMQTIMKMGPLSNIAQMIPGMSNMMNQVGEEETSQKMKKMVYVLDSMTKEELESDGRMFIEEPTRMVRVAKGSGTSVFEVEMILMQQQMMARMAQTATQQQPGAPGANARMPGMPNMPGMPNMPGMPNMPGMPKVTPQMMQQAQQKLKQNPGLMQNMMNMFGGGMGGGMGGGMPDMNEMMKMMQDPQMQQMAKQFGMG
- binding: binds

B5: Brx1 (protein, UniProt Q08235 1-291)
chain: MSSIYKALAGKSKDNKSEKKQGNVKQFMNKQRTLLISSRGVNYRHRHLIQDLSGLLPHSRKEPKLDTKKDLQQLNEIAELYNCNNVLFFEARKHQDLYLWLSKPPNGPTIKFYIQNLHTMDELNFTGNCLKGSRPVLSFDQRFESSPHYQLIKELLVHNFGVPPNARKSKPFIDHVMSFSIVDDKIWVRTYEISHSTKNKEEYEDGEEDISLVEIGPRFVMTVILILEGSFGGPKIYENKQYVSPNVVRAQIKQQAAEEAKSRAEAAVERKIKRRENVLAADPLSNDALFK
- binding: binds

B6: Srp68 (protein, UniProt P38687 1-599)
chain: MVAYSPIIATYGNRAEQFLETDSDFAKYHAKLNKKLQHLRSRCHLVTKDTKKYSSKNKYGEINSEDYDNKTKLIGVLILLHAERDLALAETLKLRARQRGKLKKSEEKVLSTRLKKACKTADKLVNVTQNEQQWITRAQYLAFAKLVHSEYLINGKRFKRKDNAKISNNLALVFAALEHLKNLSLLAEEVVDNIVNKYQYSLKQYAGNLITTPEINNFIVERVQSDENKDDELVKLLLDNGFNMKKITTSTEDQKVTTNINWRSFNAKIIDAEVAQFLEQGLSIHPTQITQYTQRLSKLEKALDRHEFFIANHDDQDDIDEMVENSSENNQIILAYIKYNILLTSISRERDLFTHLWNQWLKLNTSLPSKLTKYKEMERIVKNLTKYLSDIMELPGVYSDDELLSQLDLCKLYFQLFLNTGCLSVLYQSKGRYMEALALYVDAYRRLENKLSEIESLDEILLPANLLSLNSVRSLQKRIENGGNSVITLAEYEKRNHGGSLGKYDLTVIEKLDSKKILPTDIQLKNLFPLKPKMLPIPSKPTLFDLAFNYITYDKQEPSASQVKDSVTETESISQTPISNEQTEGEPKKKRGFLGLFGR
- binding: binds

B7: Sui3 (protein, UniProt P09064 1-285)
chain: MSSDLAAELGFDPALKKKKKTKKVIPDDFDAAVNGKENGSGDDLFAGLKKKKKKSKSVSADAEAEKEPTDDIAEALGELSLKKKKKKTKDSSVDAFEKELAKAGLDNVDAESKEGTPSANSSIQQEVGLPYSELLSRFFNILRTNNPELAGDRSGPKFRIPPPVCLRDGKKTIFSNIQDIAEKLHRSPEHLIQYLFAELGTSGSVDGQKRLVIKGKFQSKQMENVLRRYILEYVTCKTCKSINTELKREQSNRLFFMVCKSCGSTRSVSSIKTGFQATVGKRRRM
- binding: binds

The next lines start with the values.

- binding: binds
B3: Whi2 (protein, UniProt P12611 1-486)
chain: MDDIITQVSPDNAESAPILQEQQQQQNSQYEGNEEDYGDSLIHLNIQENHYFITRDQLMSLPESLLLCLFPSGVFLDRCGQVITNLTRDDEVYIVNFPPDCFEYIMEIYTKAHDDLYNHPVEKFFDRPSSSFVSNAKGFFGLSSNNSISSNNEQDILHQKPAIIVLREDLDYYCVPQEEFQFDSTNEENNEDLLRHFMAQVKMAAGSYLTSKTSIFQGLYSSNRLKQQQQQQKIEKGSNSSSNTKSTSKKLGPAEQHLMDMLCSSGFTKETCWGNRTQETGKTVISSLSLCRLANETTEGFRQKFNEAKAKWEAEHKPSQDNFITPMQSNISINSLSASKSNSTISTARNLTSGSTAPATARDKRKSRLSKLADNVRSHSSSRHSSQTRSKPPELPKLYDLVPKPNINAKLLLFWRKPARKCWWGEEDIELEVEVFGSWKDESKKIIELILPTNVDPEAELHKIIVPVRLHIRRVWTLELSVIGVQ

- binding: binds
B8: Sgn1 (protein, UniProt P40561 1-250)
chain: MSQEEKVDAKATLKTEISNNKKNDKQELELDELVGKLSIEGTPQVSQKLSKEEKHAHQLEADSRSIFVGNITPDVTPEQIEDHFKDCGQIKRITLLYDRNTGTPKGYGYIEFESPAYREKALQLNGGELKGKKIAVSRKRTNIPGFNRHYNSQNQYFQQWQWNYPLMAYPNPDTFPYYPPYPPNQSPNQNFGYNKNNYYRSPYNNKNRTFQKKHFNSAKDSTKNIRSTSQKPVVMPSDNVKSSTQEKDSK

- binding: binds
B9: Sec27 (protein, UniProt P41811 1-889)
chain: MKLDIKKTFSNRSDRVKGIDFHPTEPWVLTTLYSGRVELWNYETQVEVRSIQVTETPVRAGKFIARKNWIIVGSDDFRIRVFNYNTGEKVVDFEAHPDYIRSIAVHPTKPYVLSGSDDLTVKLWNWENNWALEQTFEGHEHFVMCVAFNPKDPSTFASGCLDRTVKVWSLGQSTPNFTLTTGQERGVNYVDYYPLPDKPYMITASDDLTIKIWDYQTKSCVATLEGHMSNVSFAVFHPTLPIIISGSEDGTLKIWNSSTYKVEKTLNVGLERSWCIATHPTGRKNYIASGFDNGFTVLSLGNDEPTLSLDPVGKLVWSGGKNAAASDIFTAVIRGNEEVEQDEPLSLQTKELGSVDVFPQSLAHSPNGRFVTVVGDGEYVIYTALAWRNKAFGKCQDFVWGPDSNSYALIDETGQIKYYKNFKEVTSWSVPMHSAIDRLFSGALLGVKSDGFVYFFDWDNGTLVRRIDVNAKDVIWSDNGELVMIVNTNSNGDEASGYTLLFNKDAYLEAANNGNIDDSEGVDEAFDVLYELSESITSGKWVGDVFIFTTATNRLNYFVGGKTYNLAHYTKEMYLLGYLARDNKVYLADREVHVYGYEISLEVLEFQTLTLRGEIEEAIENVLPNVEGKDSLTKIARFLEGQEYYEEALNISPDQDQKFELALKVGQLTLARDLLTDESAEMKWRALGDASLQRFNFKLAVEAFTNAHDLESLFLLHSSFNNKEGLVTLAKDAERAGKFNLAFNAYWIAGDIQGAKDLLIKSQRFSEAAFLGSTYGLGDDAVNDIVTKWKENLILNGKNTVSERVCGAEGLPGSSSSGDAQPLIDLDSTPAPEQADENKEAEVEDSEFKESNSEAVEAEKKEEEAPQQQQSEQQPEQGEAVPEPVEEES
